Experiment: general procedure: Fmoc solid-phase peptide synthesis; Rink amide AM resin; HATU
Conditions: whole synthesis, scale 15-μmol

Substance | final HPLC purity (520 nm and 220 nm) | final HPLC purity (280 nm and 220 nm)
Palmitic acid-PPPDDK(ZPI)-CONH2 (N-palmitoyl, ZP1 on Lys, C-amide) | ≧95% | 
zinquin-FxrFxrFxr-CONH2 |  | ≧95%

— patent publication US8883962B2 (Massachusetts Institute of Technology, priority 2012, dated 2014)
